{
  "source": "paper PMC8384837",
  "details_in_all_cases": "yeast three-hybrid, YBZ-1, SC-Leu-His + 0.5 mM 3-AT, 4 days",
  "key": {"[1]": {"biological_target": "T1, PUM1 PUF domain R4-EPR N971E + H972P + Q975R (UniProt Q14671)", "T1 sequence": "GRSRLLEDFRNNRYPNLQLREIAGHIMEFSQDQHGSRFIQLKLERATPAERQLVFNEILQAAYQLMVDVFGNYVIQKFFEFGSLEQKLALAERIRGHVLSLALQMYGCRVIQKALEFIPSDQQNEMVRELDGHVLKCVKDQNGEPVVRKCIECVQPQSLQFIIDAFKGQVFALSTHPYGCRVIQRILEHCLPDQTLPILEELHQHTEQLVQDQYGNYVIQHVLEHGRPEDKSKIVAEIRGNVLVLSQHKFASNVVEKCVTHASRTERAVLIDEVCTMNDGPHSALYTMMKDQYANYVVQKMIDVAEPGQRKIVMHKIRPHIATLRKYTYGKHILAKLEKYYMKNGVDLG"}, "[2]": {"biological_target": "T2, PUM1 PUF domain R4-EPS N971E + H972P + Q975S (UniProt Q14671)", "T2 sequence": "T1 sequence with R148S"}, "[3]": {"biological_target": "T3, PUM1 PUF domain R4-ERC N971E + H972R + Q975C (UniProt Q14671)", "T3 sequence": "T1 sequence with P145R, R148C"}, "[4]": {"biological_target": "T4, PUM1 PUF domain R4-ERQ N971E + H972R (UniProt Q14671)", "T4 sequence": "T1 sequence with P145R, R148Q"}, "[5]": {"biological_target": "T5, PUM1 PUF domain R4-EYG N971E + H972Y + Q975G (UniProt Q14671)", "T5 sequence": "T1 sequence with P145Y, R148G"}, "[6]": {"biological_target": "T6, PUM1 PUF domain R4-EYI N971E + H972Y + Q975I (UniProt Q14671)", "T6 sequence": "T1 sequence with P145Y, R148I"}, "[7]": {"biological_target": "T7, PUM1 PUF domain R4-EYM N971E + H972Y + Q975M (UniProt Q14671)", "T7 sequence": "T1 sequence with P145Y, R148M"}, "[8]": {"biological_target": "T8, PUM1 PUF domain R4-EYR N971E + H972Y + Q975R (UniProt Q14671)", "T8 sequence": "T1 sequence with P145Y"}, "[9]": {"biological_target": "T9, PUM1 PUF domain R4-FAA N971F + H972A + Q975A (Homo sapiens) (UniProt Q14671)", "T9 sequence": "T1 sequence with E144F, P145A, R148A"}, "[10]": {"biological_target": "T10, PUM1 PUF domain R4-FGC N971F + H972G + Q975C (UniProt Q14671)", "T10 sequence": "T1 sequence with E144F, P145G, R148C"}, "[11]": {"biological_target": "T11, PUM1 PUF domain R4-FGQ N971F + H972G (UniProt Q14671)", "T11 sequence": "T1 sequence with E144F, P145G, R148Q"}, "[12]": {"biological_target": "T12, PUM1 PUF domain R4-FGR N971F + H972G + Q975R (UniProt Q14671)", "T12 sequence": "T1 sequence with E144F, P145G"}, "[13]": {"biological_target": "T13, PUM1 PUF domain R4-FGS N971F + H972G + Q975S (UniProt Q14671)", "T13 sequence": "T1 sequence with E144F, P145G, R148S"}, "[14]": {"biological_target": "T14, PUM1 PUF domain R4-FNA N971F + H972N + Q975A (UniProt Q14671)", "T14 sequence": "T1 sequence with E144F, P145N, R148A"}, "[15]": {"biological_target": "T15, PUM1 PUF domain R4-FNC N971F + H972N + Q975C (UniProt Q14671)", "T15 sequence": "T1 sequence with E144F, P145N, R148C"}, "[16]": {"biological_target": "T16, PUM1 PUF domain R4-FNL N971F + H972N + Q975L (UniProt Q14671)", "T16 sequence": "T1 sequence with E144F, P145N, R148L"}, "[17]": {"biological_target": "T17, PUM1 PUF domain R4-FNM N971F + H972N + Q975M (UniProt Q14671)", "T17 sequence": "T1 sequence with E144F, P145N, R148M"}, "[18]": {"biological_target": "T18, PUM1 PUF domain R4-GCC N971G + H972C + Q975C (UniProt Q14671)", "T18 sequence": "T1 sequence with E144G, P145C, R148C"}, "[19]": {"biological_target": "T19, PUM1 PUF domain R4-GCG N971G + H972C + Q975G (Homo sapiens) (UniProt Q14671)", "T19 sequence": "T1 sequence with E144G, P145C, R148G"}, "[20]": {"biological_target": "T20, PUM1 PUF domain R4-GFW N971G + H972F + Q975W (UniProt Q14671)", "T20 sequence": "T1 sequence with E144G, P145F, R148W"}, "[21]": {"biological_target": "T21, PUM1 PUF domain R4-GHP N971G + Q975P (UniProt Q14671)", "T21 sequence": "T1 sequence with E144G, P145H, R148P"}, "[22]": {"biological_target": "T22, PUM1 PUF domain R4-GMC N971G + H972M + Q975C (UniProt Q14671)", "T22 sequence": "T1 sequence with E144G, P145M, R148C"}, "[23]": {"biological_target": "T23, PUM1 PUF domain R4-GMG N971G + H972M + Q975G (UniProt Q14671)", "T23 sequence": "T1 sequence with E144G, P145M, R148G"}, "[24]": {"biological_target": "T24, PUM1 PUF domain R4-GNC N971G + H972N + Q975C (UniProt Q14671)", "T24 sequence": "T1 sequence with E144G, P145N, R148C"}, "[25]": {"biological_target": "T25, PUM1 PUF domain R4-GNG N971G + H972N + Q975G (UniProt Q14671)", "T25 sequence": "T1 sequence with E144G, P145N, R148G"}, "[26]": {"biological_target": "T26, PUM1 PUF domain R4-GNL N971G + H972N + Q975L (UniProt Q14671)", "T26 sequence": "T1 sequence with E144G, P145N, R148L"}, "[27]": {"biological_target": "T27, PUM1 PUF domain R4-GNR N971G + H972N + Q975R (UniProt Q14671)", "T27 sequence": "T1 sequence with E144G, P145N"}, "[28]": {"biological_target": "T28, PUM1 PUF domain R4-GNS N971G + H972N + Q975S (UniProt Q14671)", "T28 sequence": "T1 sequence with E144G, P145N, R148S"}, "[29]": {"biological_target": "T29, PUM1 PUF domain R4-GNT N971G + H972N + Q975T (UniProt Q14671)", "T29 sequence": "T1 sequence with E144G, P145N, R148T"}, "[30]": {"biological_target": "T30, PUM1 PUF domain R4-GNV N971G + H972N + Q975V (UniProt Q14671)", "T30 sequence": "T1 sequence with E144G, P145N, R148V"}},
  "note": "Substitutions are numbered along the chain they refer to. Some of the results follow. For part of these data: At the low end of the ranking the order means little.",
  "data": [
    {"sequence": "GGCUAGAACUAGUGGAUCCCCCGGCGCCCGGCGGCUCGAGCCCGGGUAAGUGUAGAUAGUCUGCAUGCCGCCGGGCGCCAUGCCUGCAGGUCGACUCUAGAAAACAUG", "values": [
      {"measurement": "binding signal (log2 enrichment (interaction score))", "setting": "[1]", "result": "< -5.48"},
      {"measurement": "binding signal (log2 enrichment (interaction score))", "setting": "[2]", "result": "< -8.59"},
      {"measurement": "binding signal (log2 enrichment (interaction score))", "setting": "[3]", "result": "< -5.31"},
      {"measurement": "binding signal (log2 enrichment (interaction score))", "setting": "[4]", "result": "< -5.85"},
      {"measurement": "binding signal (log2 enrichment (interaction score))", "setting": "[5]", "result": "< -7.89"},
      {"measurement": "binding signal (log2 enrichment (interaction score))", "setting": "[6]", "result": "< -6.59"},
      {"measurement": "binding signal (log2 enrichment (interaction score))", "setting": "[7]", "result": "< -5.31"},
      {"measurement": "binding signal (log2 enrichment (interaction score))", "setting": "[8]", "result": "< -5.73"},
      {"measurement": "binding signal (log2 enrichment (interaction score))", "setting": "[9]", "result": "< -5.27"},
      {"measurement": "binding signal (log2 enrichment (interaction score))", "setting": "[10]", "result": "< -7.91"},
      {"measurement": "binding signal (log2 enrichment (interaction score))", "setting": "[11]", "result": "< -5.38"},
      {"measurement": "binding signal (log2 enrichment (interaction score))", "setting": "[12]", "result": "< -7.91"},
      {"measurement": "binding signal (log2 enrichment (interaction score))", "setting": "[13]", "result": "< -7.32"},
      {"measurement": "binding signal (log2 enrichment (interaction score))", "setting": "[14]", "result": "< -6.27"},
      {"measurement": "binding signal (log2 enrichment (interaction score))", "setting": "[15]", "result": "< -5.16"},
      {"measurement": "binding signal (log2 enrichment (interaction score))", "setting": "[16]", "result": "< -5.61"},
      {"measurement": "binding signal (log2 enrichment (interaction score))", "setting": "[17]", "result": "< -4.74"},
      {"measurement": "binding signal (log2 enrichment (interaction score))", "setting": "[18]", "result": "< -6.95"},
      {"measurement": "binding signal (log2 enrichment (interaction score))", "setting": "[19]", "result": -2.28},
      {"measurement": "binding signal (log2 enrichment (interaction score))", "setting": "[20]", "result": "< -4.94"},
      {"measurement": "binding signal (log2 enrichment (interaction score))", "setting": "[21]", "result": "< -6.35"},
      {"measurement": "binding signal (log2 enrichment (interaction score))", "setting": "[22]", "result": "< -6.63"},
      {"measurement": "binding signal (log2 enrichment (interaction score))", "setting": "[23]", "result": -5.05},
      {"measurement": "binding signal (log2 enrichment (interaction score))", "setting": "[24]", "result": "< -6.31"},
      {"measurement": "binding signal (log2 enrichment (interaction score))", "setting": "[25]", "result": "< -6.31"},
      {"measurement": "binding signal (log2 enrichment (interaction score))", "setting": "[26]", "result": "< -7.37"},
      {"measurement": "binding signal (log2 enrichment (interaction score))", "setting": "[27]", "result": "< -7.46"},
      {"measurement": "binding signal (log2 enrichment (interaction score))", "setting": "[28]", "result": "< -5.97"},
      {"measurement": "binding signal (log2 enrichment (interaction score))", "setting": "[29]", "result": "< -7.3"},
      {"measurement": "binding signal (log2 enrichment (interaction score))", "setting": "[30]", "result": "< -7.81"}
    ]}
  ]
}
